Here are results for 1 molecule from US20220041740A1 (LIFEARC, published 2022).

No constants are given. Whether binding was seen depends on the method and setting. Some entries that bind do so weakly or less than the wild type.

Assay [1] deals with T1, IL-17BR (as injected in the Biacore competition assay) (Homo sapiens (Human)) (UniProt Q9NRM6).
T1 sequence: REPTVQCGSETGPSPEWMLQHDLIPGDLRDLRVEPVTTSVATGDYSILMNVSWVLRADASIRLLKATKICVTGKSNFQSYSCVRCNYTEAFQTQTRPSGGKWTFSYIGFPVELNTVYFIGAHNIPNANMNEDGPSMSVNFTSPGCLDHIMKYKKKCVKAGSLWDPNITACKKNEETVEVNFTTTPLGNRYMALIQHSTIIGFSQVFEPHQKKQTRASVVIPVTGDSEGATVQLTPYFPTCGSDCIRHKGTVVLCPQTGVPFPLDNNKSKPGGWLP
The assay can be described thus: Biacore, hD9030 captured on Protein A chip, IL-17BR injected at 10 ug/ml. For orientation: In SPR one partner is held on a chip, and binding of the other changes the refractive index at the surface.

Assay [2] deals with T1, IL-17BR (as injected in the Biacore competition assay) (Homo sapiens (Human)). The assay can be described thus: Biacore 2000 competition assay; hD9030 captured on a Protein A chip, IL-17BR injected at 10 ug/ml.

B1: humanised antibody hD9030 (antibody, human IgG1, V domains shown)
VH: EVQLVQSGAEVKKPGASVKVSCKTSGYTFISYWMNWVRQAPGQGLEWMGRIDPYDSEIQYNQKFKDRVTLTRDTSISTAYMELSRLRSDDTAVYYCARSGGFDWFAYWGQGTLVTVSS
VL: DIQMTQSPSSLSASVGDRVTITCRTSENIYSNLAWYQQKPGKAPKLLLYDATNLGDGVPSRFSGSGSGTDYTLTISSLQPEDFATYYCQHFWGPPYTFGGGTKVEIK
Turning to B1, the binding result in assay [1] and in assay [2] was “binds” in each case.
